Screening data

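Gene-edited human muscle precursor cells given interferon-beta; light output reports tagged MHC class I level or cell ATP content, measured at one day. Each compound was run as a 12-point threefold dilution series, topping out at 46 µM. The value is the fitted AC50 from the dose series; a lower number means a more potent effect. Calls follow NCATS curve-class scoring, and compounds whose curves are weak, poorly fitted or active only at the top dose are labelled inconclusive.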

Values are in µM. All entries here are filed as inconclusive. Only part of the assay is shown, chiefly results filed as inconclusive. A potency from a partial, single-point or poor curve is only a rough figure. Some entries filed as inconclusive have a full curve. The first word of each remark tells which way the curve ran; it can be opposite to the aim of the assay. Activity scores are not listed here.

SMILES,condition,fitted potency (µM),curve
COC(C)(C)CCn1nc(Nc2c(C)cccc2C)c2cnc(Nc3ccc(OCCN4CCCC4)c(F)c3)nc21,Viability,8.83,"cytotoxic, partial curve"
c1ccc2c(c1)OCC(C1=NCCN1)O2 (centres undefined),HiBiT,27.92,"inhibitor, partial curve"
C[C@@H]1C[C@@H]([C@H](O)CC2CC(=O)NC(=O)C2)C(=O)[C@@H](C)C1,Viability,0.4965,"cytotoxic, full curve, poor fit"
CN(C)CCN(C)C(=O)c1ccc(NC(=O)Nc2ccc(-c3nc(N4CCOCC4)c4ccn(CC(F)(F)F)c4n3)cc2)cc1,HiBiT,0.2218,"inhibitor, full curve"
Cc1cc(Nc2cc(N3CCN(C)CC3)nc(/C=C/c3ccccc3)n2)n[nH]1,Viability,22.18,"cytotoxic, partial curve"
COc1cc([C@@H]2c3cc4c(cc3[C@H](O)[C@H]3COC(=O)[C@@H]23)OCO4)cc(OC)c1OC,Viability,4.965,"cytotoxic, partial curve"
CCC(C)Nc1cc(C(=O)NC2CC3CCC(C2)N3c2ccc(C(=O)C3CC3)cn2)c(C)cc1C(N)=O (centres undefined),Viability,0.7014,"cytotoxic, full curve, poor fit"
C/C=C(/C)C(=O)O[C@H]1C(C)=C2[C@H]([C@@H]1OC(=O)CCCCCCC)[C@@](C)(OC(C)=O)C[C@H](OC(=O)CCC)[C@@]1(O)[C@H]2OC(=O)[C@@]1(C)O,Viability,0.0035,"cytotoxic, full curve, poor fit"
COc1ccc(-c2ccc3c(N4CCOCC4)nc(N4C[C@@H](C)O[C@@H](C)C4)nc3n2)cc1CO,HiBiT,1.247,"inhibitor, full curve"
c1ccc2c(-c3cnn4cc(-c5ccc(N6CCNCC6)cc5)cnc34)ccnc2c1,Viability,7.014,"cytotoxic, single point"
Cn1ncc2cc(-c3cnc(N)c(Cl)c3N3CCC4(CCNC4=O)CC3)ccc21,HiBiT,0.0198,"inhibitor, full curve"
CN1N=C(N)c2cn([C@@H]3O[C@H](COP(=O)(O)O)[C@@H](O)[C@@H]3O)c3ncnc1c23,HiBiT,0.4965,"inhibitor, full curve"
CCC(C)Nc1cc(C(=O)NC2CC3CCC(C2)N3c2ccc(C(=O)C3CC3)cn2)c(C)cc1C(N)=O (centres undefined),HiBiT,0.1247,"inhibitor, full curve"
CCNC(=O)c1cc2c(-c3cc(OCCN4CCCC4)c(Cl)cc3Cl)nc(N)nc2s1,Viability,4.965,"cytotoxic, full curve"
CC(C)(Cc1ccc2ccccc2c1)NC[C@@H](O)COc1cccc(Cl)c1C#N,Viability,49.65,"cytotoxic, single point"
CCS(=O)(=O)c1cccc(-c2cc(C(=O)NC3CCN(C)CC3)c(C)c3[nH]c4ncc(C)cc4c23)c1,Viability,3.515,"cytotoxic, full curve, poor fit"
Nc1nccn2c(C3CCC(C(=O)O)CC3)nc(-c3cc4cccc(Cl)c4[nH]3)c12 (centres undefined),Viability,15.7,"cytotoxic, partial curve, poor fit"
CNCc1ccc(C)c(NC(=O)c2ccc(Nc3nc(-c4ccccc4)c4ccccc4n3)cc2)c1,Viability,35.15,"cytotoxic, single point"
C1=C/COCc2cc(ccc2OCCN2CCCC2)Nc2nccc(n2)-c2cccc(c2)COC/1,Viability,15.7,"cytotoxic, partial curve"
O=C(/C=C/c1ccc2ccc(C(F)(F)F)cc2n1)c1ccncc1,Viability,44.25,"cytotoxic, single point"
C[C@@H](Nc1cc(F)cc(F)c1)c1cc(C(=O)N(C)C)cc2c(=O)cc(N3CCOCC3)oc12,Viability,0.3944,"cytotoxic, full curve, poor fit"
COC[C@H]1OC(=O)c2coc3c2[C@@]1(C)C1=C(C3=O)C2CCC(=O)[C@@]2(C)C[C@H]1OC(C)=O (some centres undefined),Viability,17.62,"cytotoxic, partial curve, poor fit"
CCNC(=O)c1cc2c(-c3cc(OCCN4CCCC4)c(Cl)cc3Cl)nc(N)nc2s1,HiBiT,0.9907,"inhibitor, full curve"
CNS(=O)(=O)c1ccc2c(c1)/C(=C/c1[nH]c3c(c1CCCN1CCN(C)CC1)CCCC3)C(=O)N2,Viability,27.92,"cytotoxic, single point"
COc1ccc2nc3cc(Cl)ccc3c(Nc3cc(CN4CCCC4)c(O)c(CN4CCCC4)c3)c2n1,HiBiT,24.89,"inhibitor, partial curve"
c1ccc(CNc2nc(NCc3ccccc3)c3ccccc3n2)cc1,Viability,39.44,"cytotoxic, single point"
COc1cc([C@@H]2c3cc4c(cc3[C@@H](O)C3COC(=O)C32)OCO4)cc(OC)c1O (some centres undefined),HiBiT,0.9907,"inhibitor, full curve"
CC(C)(Cc1ccc2ccccc2c1)NC[C@@H](O)COc1cccc(Cl)c1C#N,HiBiT,49.65,"inhibitor, single point"
COc1cc([C@@H]2c3cc4c(cc3[C@@H](O)C3COC(=O)C32)OCO4)cc(OC)c1O (some centres undefined),Viability,1.247,"cytotoxic, full curve"

Once more, the final 2:

- CC(C)(Cc1ccc2ccccc2c1)NC[C@@H](O)COc1cccc(Cl)c1C#N [HiBiT] | fitted potency 49.65 µM (inhibitor, single point)
- COc1cc([C@@H]2c3cc4c(cc3[C@@H](O)C3COC(=O)C32)OCO4)cc(OC)c1O (some centres undefined) [Viability] | fitted potency 1.247 µM (cytotoxic, full curve)

The results are deposited in PubChem (AID1347412; NCATS, 2020).